Test results published in PMC10548170.
No constants are given. Whether binding was seen depends on the method and setting. Binding seen in cells or lysates may run through a third protein. Some results given as binding are weak or reduced against the parent protein; the word gives no strength. For part of these data: Tags and fused reporters may be left off the sequences shown. Blank lines part the entries; values can stand above or below the molecule they belong to.

Chains of the proteins cited; added tags and fusions are not shown.
UniProt Q8R4B8: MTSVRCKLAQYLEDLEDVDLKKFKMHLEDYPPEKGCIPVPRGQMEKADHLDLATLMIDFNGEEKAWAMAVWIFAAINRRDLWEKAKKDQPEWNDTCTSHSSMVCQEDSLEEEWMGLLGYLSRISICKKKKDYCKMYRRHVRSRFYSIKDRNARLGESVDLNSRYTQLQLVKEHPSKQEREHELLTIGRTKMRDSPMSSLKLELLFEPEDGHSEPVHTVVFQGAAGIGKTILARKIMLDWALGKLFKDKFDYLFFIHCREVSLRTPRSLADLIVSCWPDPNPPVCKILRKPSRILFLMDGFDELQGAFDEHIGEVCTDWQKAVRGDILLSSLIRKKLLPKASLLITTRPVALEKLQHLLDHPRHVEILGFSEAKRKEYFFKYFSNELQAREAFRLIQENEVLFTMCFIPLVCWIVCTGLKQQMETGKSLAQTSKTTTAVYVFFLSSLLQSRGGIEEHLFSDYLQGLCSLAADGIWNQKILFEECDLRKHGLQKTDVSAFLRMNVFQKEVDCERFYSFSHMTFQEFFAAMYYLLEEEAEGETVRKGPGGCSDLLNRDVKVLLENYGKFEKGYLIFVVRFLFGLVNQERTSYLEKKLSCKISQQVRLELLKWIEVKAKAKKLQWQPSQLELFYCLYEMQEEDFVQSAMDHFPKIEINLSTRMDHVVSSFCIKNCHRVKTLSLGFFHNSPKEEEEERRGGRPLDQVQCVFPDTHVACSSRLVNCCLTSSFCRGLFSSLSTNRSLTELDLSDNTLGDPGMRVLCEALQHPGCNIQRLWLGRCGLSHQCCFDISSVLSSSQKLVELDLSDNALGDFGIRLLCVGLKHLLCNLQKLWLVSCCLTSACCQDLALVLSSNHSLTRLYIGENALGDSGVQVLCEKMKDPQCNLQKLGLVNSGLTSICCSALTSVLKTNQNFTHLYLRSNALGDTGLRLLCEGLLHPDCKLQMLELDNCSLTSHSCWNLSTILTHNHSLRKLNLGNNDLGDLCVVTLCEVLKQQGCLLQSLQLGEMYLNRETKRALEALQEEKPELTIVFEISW
UniProt Q9ULZ3: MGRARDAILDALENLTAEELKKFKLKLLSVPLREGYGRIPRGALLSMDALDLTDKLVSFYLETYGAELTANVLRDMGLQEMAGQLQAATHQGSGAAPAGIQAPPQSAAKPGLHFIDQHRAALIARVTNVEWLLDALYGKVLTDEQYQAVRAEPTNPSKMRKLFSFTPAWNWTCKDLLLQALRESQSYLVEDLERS
UniProt P29466: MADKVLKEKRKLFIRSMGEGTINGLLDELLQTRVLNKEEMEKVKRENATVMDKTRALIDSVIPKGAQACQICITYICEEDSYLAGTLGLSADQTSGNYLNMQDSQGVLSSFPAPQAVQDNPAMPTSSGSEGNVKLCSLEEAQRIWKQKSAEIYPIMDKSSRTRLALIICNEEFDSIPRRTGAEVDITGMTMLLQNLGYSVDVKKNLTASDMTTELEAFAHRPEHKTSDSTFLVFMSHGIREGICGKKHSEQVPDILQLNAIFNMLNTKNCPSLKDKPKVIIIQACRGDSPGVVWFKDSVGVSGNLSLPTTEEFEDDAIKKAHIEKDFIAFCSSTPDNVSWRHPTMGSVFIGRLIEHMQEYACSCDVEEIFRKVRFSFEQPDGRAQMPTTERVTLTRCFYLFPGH

Experiments:
[1] = target: T1, Myc-MARCH5 (UniProt Q9NX47); experiment: co-IP; HEK293T cells cotransfected with Myc-MARCH5 and FLAG-tagged NLRP3, ASC or pro-caspase-1; text: anti-Myc antibody, legend: anti-FLAG-M2 beads
T1 sequence: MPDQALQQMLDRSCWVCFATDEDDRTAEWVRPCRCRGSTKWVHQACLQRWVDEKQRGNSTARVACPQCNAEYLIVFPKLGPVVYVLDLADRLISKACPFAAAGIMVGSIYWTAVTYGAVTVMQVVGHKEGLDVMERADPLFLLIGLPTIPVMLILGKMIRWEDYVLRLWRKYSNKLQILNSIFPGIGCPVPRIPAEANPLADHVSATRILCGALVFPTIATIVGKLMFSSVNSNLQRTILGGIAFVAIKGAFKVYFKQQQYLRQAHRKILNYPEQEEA

[2] = target: NLRP3 (NOD-like receptor family pyrin domain containing 3), endogenous mouse (mouse (endogenous in BMDMs)) (UniProt Q8R4B8); experiment: co-IP; BMDMs treated with LPS plus nigericin (with and without MARCH5); immunoprecipitation with anti-NLRP3 antibody (Appendix Fig S1B)

binding [1]: binds
Molecule: FLAG-ASC (from UniProt Q9ULZ3 1-195)

binding [1]: no binding
Molecule: FLAG-pro-caspase-1 (from UniProt P29466 1-404) (enzyme)

binding [2]: binds
B1: MAVS, endogenous mouse (protein, UniProt Q8VCF0 1-503)
chain: MTFAEDKTYKYIRDNHSKFCCVDVLEILPYLSCLTASDQDRLRASYRQIGNRDTLWGLFNNLQRRPGWVEVFIRALQICELPGLADQVTRVYQSYLPPGTSLRSLEPLQLPDFPAAVSGPSAFAPGHNIPDHGLRETPSCPKPVQDTQPPESPVENSEQLLQTNSGAVARMSGGSLIPSPNQQALSPQPSREHQEQEPELGGAHAANVASVPIATYGPVSPTVSFQPLPRTALRTNLLSGVTVSALSADTSLSSSSTGSAFAKGAGDQAKAATCFSTTLTNSVTTSSVPSPRLVPVKTMSSKLPLSSKSTAAMTSTVLTNTAPSKLPSNSVYAGTVPSRVPASVAKAPANTIPPERNSKQAKETPEGPATKVTTGGNQTGPNSSIRSLHSGPEMSKPGVLVSQLDEPFSACSVDLAISPSSSLVSEPNHGPEENEYSSFRIQVDESPSADLLGSPEPLATQQPQEEEEHCASSMPWAKWLGATSALLAVFLAVMLYRSRRLAQ
